Record: PubChem BioAssay AID1224828 (NIAID, 2016)
Purpose: 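Knock-downs that increase or decrease LPS-induced p65 nuclear translocation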 (primary screen). Cells: mouse RAW264.7 G9 macrophage reporter cells (GFP-p65, Tnf promoter-mCherry). Reagent: siRNA pool against mouse genes, 100 nM. Timing: 2 days siRNA transfection, then 40 min LPS before fixation. Conditions: LPS (Salmonella minnesota R595) at 10 ng/ml. Measurement: 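Microscopy ratio of nuclear to perinuclear-ring GFP-p65 signal, scaled to the plate median; gene score is the average of two replicate robust z-scores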. Reading the numbers: p65 translocation robust z-score: higher = more nuclear NF-kappaB p65 after LPS than the plate median; nuclear/cytoplasmic p65 ratio: higher = more nuclear NF-kappaB p65. Call rule: 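Called active when z exceeds 3.3 or falls under -1.56 (median of Tlr4 controls), giving activity score of at least 50; no calls for control wells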. Meaning of the calls: active = hit (p65 shift raised or lowered); inactive = no clear change.
Shown is one part, drawn at random, of about 17,000 reagents tested. Of all reagents, 762 (4.5%) got an active call. 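Active calls include both raised and lowered p65 entry, mostly lowered; wells with fewer than 50 cells lack a z-score.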 Raw values are not corrected between plates.

| target | p65 translocation robust z-score | nuclear/cytoplasmic p65 ratio, rep 1 | nuclear/cytoplasmic p65 ratio, rep 2 | low cell count flag | outcome |
| --- | --- | --- | --- | --- | --- |
| Flot2 (GeneID 14252) | -1.52 | 1.35 | 1.36 | enough cells to score | inactive |
| Ap2a1 (GeneID 11771) | -0.19 | 1.59 | 1.65 | enough cells to score | inactive |
| Reep2 (GeneID 225362) | 0.97 | 1.82 | 1.89 | enough cells to score | inactive |
| Dars1 (GeneID 226414) | -1.08 | 1.34 | 1.22 | enough cells to score | inactive |
| Gabarapl2 (GeneID 93739) | 0.22 | 1.56 | 1.55 | enough cells to score | inactive |
| Krt6a (GeneID 16687) | -1.35 | 1.22 | 1.28 | enough cells to score | inactive |
| Csrnp3 (GeneID 77771) | – | 1.3 | 1.53 | fewer than 50 cells per well; well left out of scoring | inactive |
| D930020B18Rik (GeneID 216393) | -0.48 | 1.45 | 1.53 | enough cells to score | inactive |
| Slc29a3 (GeneID 71279) | – | 0 | 1.21 | fewer than 50 cells per well; well left out of scoring | inactive |
| Tnfsf13b (GeneID 24099) | -0.56 | 1.42 | 1.46 | enough cells to score | inactive |
| Mchr1 (GeneID 207911) | -0.96 | 1.34 | 1.48 | enough cells to score | inactive |
| Pde6b (GeneID 18587) | -0.61 | 1.38 | 1.21 | enough cells to score | inactive |
| Tas2r129 (GeneID 387354) | – | 1.27 | 1.11 | fewer than 50 cells per well; well left out of scoring | inactive |

Part of the list above in another layout.
D930020B18Rik (GeneID 216393) | p65 translocation robust z-score: -0.48; nuclear/cytoplasmic p65 ratio, rep 1: 1.45; nuclear/cytoplasmic p65 ratio, rep 2: 1.53; low cell count flag: enough cells to score; outcome: inactive
Slc29a3 (GeneID 71279) | nuclear/cytoplasmic p65 ratio, rep 1: 0; nuclear/cytoplasmic p65 ratio, rep 2: 1.21; low cell count flag: fewer than 50 cells per well; well left out of scoring; outcome: inactive
Tnfsf13b (GeneID 24099) | p65 translocation robust z-score: -0.56; nuclear/cytoplasmic p65 ratio, rep 1: 1.42; nuclear/cytoplasmic p65 ratio, rep 2: 1.46; low cell count flag: enough cells to score; outcome: inactive

The results go on:
| target | p65 translocation robust z-score | nuclear/cytoplasmic p65 ratio, rep 1 | nuclear/cytoplasmic p65 ratio, rep 2 | low cell count flag | outcome |
| --- | --- | --- | --- | --- | --- |
| Jag2 (GeneID 16450) | 2.77 | 1.83 | 1.76 | enough cells to score | inactive |
| Arr3 (GeneID 170735) | -0.77 | 1.56 | 1.33 | enough cells to score | inactive |
| Kdm5b (GeneID 75605) | -0.4 | 1.39 | 1.35 | enough cells to score | inactive |
| Or6c5 (GeneID 258232) | – | 1.17 | 1.12 | fewer than 50 cells per well; well left out of scoring | inactive |
| Sac3d1 (GeneID 66406) | – | 1.38 | 1.32 | fewer than 50 cells per well; well left out of scoring | inactive |
| Pabpn1 (GeneID 54196) | 0.02 | 1.45 | 1.42 | enough cells to score | inactive |
| Sh3bp5l (GeneID 79566) | – | 1.11 | 1.45 | fewer than 50 cells per well; well left out of scoring | inactive |
| Dusp3 (GeneID 72349) | – | 1.39 | 1.25 | fewer than 50 cells per well; well left out of scoring | inactive |
| Ifi209 (GeneID 236312) | 0.14 | 1.69 | 1.64 | enough cells to score | inactive |
| Clca3b (GeneID 229927) | 0.37 | 1.77 | 1.72 | enough cells to score | inactive |
| Ctnna1 (GeneID 12385) | -1.08 | 1.7 | 1.24 | enough cells to score | inactive |
